In the data set the target is T1, MatP (Escherichia coli) (UniProt P0A8N0).
T1 sequence (looked up, limits assumed): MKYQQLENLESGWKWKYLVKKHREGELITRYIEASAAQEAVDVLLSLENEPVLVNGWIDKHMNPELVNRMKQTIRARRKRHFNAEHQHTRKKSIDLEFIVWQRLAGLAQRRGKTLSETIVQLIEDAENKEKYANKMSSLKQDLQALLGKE
In words: fluorescence anisotropy. To be noted: 500 mM KCl, interaction greatly hindered; 50 mM Tris-HCl, 300 mM KCl, 5 mM MgCl2, pH 7.5; temperature not stated; matS-Fl 10 nM in anisotropy titrations; recombinant protein; protein details: untagged (N-terminal His6 removed by thrombin); label: 5'-fluorescein on sense strand. (In general: Polarisation of emitted light reports the rotation of a fluorescent probe.)

For at least one entry, the source does not settle the construct or the ends of the probe. Weaker means in comparison with the reference protein, sequence or condition of that experiment. Tags and fusion partners may be left off the protein sequences shown.

This note sets out measurements from PMC6538776, “The Bacterial DNA Binding Protein MatP Involved in Linking the Nucleoid Terminal Domain to the Divisome at Midcell Interacts with Lipid Membranes” (mBio, 2018).

On to “AAAGTGACACTGTCACCTT (double strand) [matS-Fl (matS19)]”, for which the binding result is “binds more weakly”.
